# Some of the results follow.
# Experiments:
# Test in all cases: glycan array binding signal (z-score within array); higher = stronger binding
# Settings in all cases: glycan notation: IUPAC condensed, linker removed
# [1] = target: Gal(b1-4)GlcNAc(b1-2)[Gal(b1-4)GlcNAc(b1-4)]Man(a1-3)[Gal(b1-4)GlcNAc(b1-2)Man(a1-6)]Man(b1-4)GlcNAc(b1-4)GlcNAc
# Summary of the method: (§1)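 Arrays were curated from the Consortium for Functional Glycomics database, 3228 in total, and kept only where the protein sequence was available. Binding is expressed as a within-array Z-score. This score was averaged across arrays of the same protein sequence at different concentrations or buffers and across linkers, and negative values can be read as non-binding.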
# [2] = target: Gal(b1-4)GlcNAc(b1-2)[Gal(b1-4)GlcNAc(b1-4)]Man(a1-3)[Gal(b1-4)GlcNAc(b1-2)[Gal(b1-4)GlcNAc(b1-6)]Man(a1-6)]Man(b1-4)GlcNAc(b1-4)GlcNAc
# Summary of the method: as §1
# [3] = target: Gal(b1-4)GlcNAc(b1-2)[Gal(b1-4)GlcNAc(b1-4)]Man(a1-3)[GlcNAc(b1-4)][Gal(b1-4)GlcNAc(b1-2)Man(a1-6)]Man(b1-4)GlcNAc(b1-4)GlcNAc
# Summary of the method: as §1
# [4] = target: Gal(b1-4)GlcNAc(b1-2)[Gal(b1-4)GlcNAc(b1-4)]Man(a1-3)[GlcNAc(b1-4)][Gal(b1-4)GlcNAc(b1-2)[Gal(b1-4)GlcNAc(b1-6)]Man(a1-6)]Man(b1-4)GlcNAc(b1-4)GlcNAc
# Summary of the method: as §1
# [5] = target: Gal(b1-4)GlcNAc(b1-2)[Gal(b1-4)GlcNAc(b1-6)]Man(a1-6)[Gal(b1-4)GlcNAc(b1-2)Man(a1-3)]Man(b1-4)GlcNAc(b1-4)GlcNAc
# Summary of the method: as §1
# [6] = target: Gal(b1-4)GlcNAc(b1-2)[Gal(b1-4)GlcNAc(b1-6)]Man(a1-6)[Gal(b1-4)GlcNAc(b1-2)Man(a1-3)]Man(b1-4)GlcNAc(b1-4)[Fuc(a1-6)]GlcNAc
# Summary of the method: as §1
# [7] = target: Gal(b1-4)GlcNAc(b1-2)[Gal(b1-4)GlcNAc(b1-6)]Man(a1-6)[GlcNAc(b1-4)][Gal(b1-4)GlcNAc(b1-2)Man(a1-3)]Man(b1-4)GlcNAc(b1-4)GlcNAc
# Summary of the method: as §1
# [8] = target: Gal(b1-4)GlcNAc(b1-2)[Gal(b1-4)GlcNAc(b1-6)]Man(a1-6)[GlcNAc(b1-4)][Gal(b1-4)GlcNAc(b1-2)[Gal(b1-4)GlcNAc(b1-4)]Man(a1-3)]Man(b1-4)GlcNAc(b1-4)[Fuc(a1-6)]GlcNAc
# Summary of the method: as §1
# [9] = target: Gal(b1-4)GlcNAc(b1-3)Gal(b1-3)GalNAc
# Summary of the method: as §1
# [10] = target: Gal(b1-4)GlcNAc(b1-3)Gal(b1-3)GlcNAc
# Summary of the method: as §1
# [11] = target: Gal(b1-4)GlcNAc(b1-3)Gal(b1-4)Glc
# Summary of the method: as §1
# [12] = target: Gal(b1-4)GlcNAc(b1-3)Gal(b1-4)GlcNAc
# Summary of the method: as §1
# [13] = target: Gal(b1-4)GlcNAc(b1-3)Gal(b1-4)GlcNAc(b1-2)Man(a1-3)[Gal(b1-4)GlcNAc(b1-3)Gal(b1-4)GlcNAc(b1-2)Man(a1-6)]Man(b1-4)GlcNAc(b1-4)GlcNAc
# Summary of the method: as §1
# [14] = target: Gal(b1-4)GlcNAc(b1-3)Gal(b1-4)GlcNAc(b1-2)Man(a1-3)[Gal(b1-4)GlcNAc(b1-3)Gal(b1-4)GlcNAc(b1-2)Man(a1-6)]Man(b1-4)GlcNAc(b1-4)[Fuc(a1-6)]GlcNAc
# Summary of the method: as §1
# [15] = target: Gal(b1-4)GlcNAc(b1-3)Gal(b1-4)GlcNAc(b1-2)[Gal(b1-4)GlcNAc(b1-3)Gal(b1-4)GlcNAc(b1-6)]Man(a1-6)[Gal(b1-4)GlcNAc(b1-3)Gal(b1-4)GlcNAc(b1-2)Man(a1-3)]Man(b1-4)GlcNAc(b1-4)GlcNAc
# Summary of the method: as §1
# [16] = target: Gal(b1-4)GlcNAc(b1-3)Gal(b1-4)GlcNAc(b1-2)[Gal(b1-4)GlcNAc(b1-3)Gal(b1-4)GlcNAc(b1-6)]Man(a1-6)[Gal(b1-4)GlcNAc(b1-3)Gal(b1-4)GlcNAc(b1-2)Man(a1-3)]Man(b1-4)GlcNAc(b1-4)[Fuc(a1-6)]GlcNAc
# Summary of the method: as §1
# [17] = target: Gal(b1-4)GlcNAc(b1-3)Gal(b1-4)GlcNAc(b1-3)Gal(b1-4)GlcNAc
# Summary of the method: as §1
# [18] = target: Gal(b1-4)GlcNAc(b1-3)Gal(b1-4)GlcNAc(b1-3)Gal(b1-4)GlcNAc(b1-2)Man(a1-3)[Gal(b1-4)GlcNAc(b1-3)Gal(b1-4)GlcNAc(b1-3)Gal(b1-4)GlcNAc(b1-2)Man(a1-6)]Man(b1-4)GlcNAc(b1-4)GlcNAc
# Summary of the method: as §1
# [19] = target: Gal(b1-4)GlcNAc(b1-3)Gal(b1-4)GlcNAc(b1-3)Gal(b1-4)GlcNAc(b1-2)Man(a1-3)[Gal(b1-4)GlcNAc(b1-3)Gal(b1-4)GlcNAc(b1-3)Gal(b1-4)GlcNAc(b1-2)Man(a1-6)]Man(b1-4)GlcNAc(b1-4)[Fuc(a1-6)]GlcNAc
# Summary of the method: as §1
# [20] = target: Gal(b1-4)GlcNAc(b1-3)Gal(b1-4)GlcNAc(b1-3)Gal(b1-4)GlcNAc(b1-2)[Gal(b1-4)GlcNAc(b1-3)Gal(b1-4)GlcNAc(b1-3)Gal(b1-4)GlcNAc(b1-6)]Man(a1-6)[Gal(b1-4)GlcNAc(b1-3)Gal(b1-4)GlcNAc(b1-3)Gal(b1-4)GlcNAc(b1-2)Man(a1-3)]Man(b1-4)GlcNAc(b1-4)[Fuc(a1-6)]GlcNAc
# Summary of the method: as §1
# [21] = target: Gal(b1-4)GlcNAc(b1-3)Gal(b1-4)GlcNAc(b1-3)Gal(b1-4)GlcNAc(b1-3)Gal(b1-4)GlcNAc(b1-2)Man(a1-3)[Gal(b1-4)GlcNAc(b1-3)Gal(b1-4)GlcNAc(b1-3)Gal(b1-4)GlcNAc(b1-3)Gal(b1-4)GlcNAc(b1-2)Man(a1-6)]Man(b1-4)GlcNAc(b1-4)GlcNAc
# Summary of the method: as §1
# [22] = target: Gal(b1-4)GlcNAc(b1-3)Gal(b1-4)GlcNAc(b1-3)Gal(b1-4)GlcNAc(b1-3)Gal(b1-4)GlcNAc(b1-2)Man(a1-3)[Gal(b1-4)GlcNAc(b1-3)Gal(b1-4)GlcNAc(b1-3)Gal(b1-4)GlcNAc(b1-3)Gal(b1-4)GlcNAc(b1-2)Man(a1-6)]Man(b1-4)GlcNAc(b1-4)[Fuc(a1-6)]GlcNAc
# Summary of the method: as §1
binder,measurement,setting,value
HFR-3 (Triticum aestivum) (protein) MKGLLLCALALAFAAVTTHAQLQSCPTRCGKQADGMECPNNLCCSKDGYCGLGVDYCSAGAGCQSGACYDNKICGAQANGTLCRNNHCCSSGGRCGYGREYCSNGCQGGPCWADLKCGHLDNGKLCPNNLCCSQYGYCGLGPEFCGTGCQNGACSTDKPCGNKANGAPCTNNYCCSQYGSCGLGKDYCGTGCQNGACN,glycan array binding signal (z-score),[1],-1.05
same,glycan array binding signal (z-score),[2],-1.23
same,glycan array binding signal (z-score),[3],-0.238
same,glycan array binding signal (z-score),[4],-0.437
same,glycan array binding signal (z-score),[5],0.188
same,glycan array binding signal (z-score),[6],-0.167
same,glycan array binding signal (z-score),[7],1.51
same,glycan array binding signal (z-score),[8],-1.17
same,glycan array binding signal (z-score),[9],1.2
same,glycan array binding signal (z-score),[10],0.558
same,glycan array binding signal (z-score),[11],-1.16
same,glycan array binding signal (z-score),[12],-0.137
same,glycan array binding signal (z-score),[13],0.764
same,glycan array binding signal (z-score),[14],-0.313
same,glycan array binding signal (z-score),[15],0.637
same,glycan array binding signal (z-score),[16],0.428
same,glycan array binding signal (z-score),[17],2.1
same,glycan array binding signal (z-score),[18],0.533
same,glycan array binding signal (z-score),[19],-1.25
same,glycan array binding signal (z-score),[20],2.51
same,glycan array binding signal (z-score),[21],0.946
same,glycan array binding signal (z-score),[22],-0.145

# An excerpt of these results, bar-delimited.
binder | measurement | setting | value
HFR-3 (Triticum aestivum) (protein) MKGLLLCALALAFAAVTTHAQLQSCPTRCGKQADGMECPNNLCCSKDGYCGLGVDYCSAGAGCQSGACYDNKICGAQANGTLCRNNHCCSSGGRCGYGREYCSNGCQGGPCWADLKCGHLDNGKLCPNNLCCSQYGYCGLGPEFCGTGCQNGACSTDKPCGNKANGAPCTNNYCCSQYGSCGLGKDYCGTGCQNGACN | glycan array binding signal (z-score) | [11] | -1.16
same | glycan array binding signal (z-score) | [12] | -0.137

# From the supplement of paper PMC8728848
